Record: PubChem BioAssay AID1159584 (Peter MacCallum Cancer Centre, 2016)
This is a random part of about 18,000 deposited reagents. Not all columns of the deposit are shown. Not stated in the record: the amount of reagent, the time to read-out.

Purpose: 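Genes that CDH1-null MCF10A cells selectively depend on to survive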 (primary screen)
Cell system: human MCF10A breast epithelial cells, parental and CDH1-null
Reagents: siRNA against human genes
Measurement: 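Cell viability by CellTiter-Glo ATP luminescence, each line scaled to the mean of mock wells across plates, then CDH1-null over parental ratio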
Direction: CDH1-null / parental viability ratio: higher = CDH1-null cells survive relatively better than parental

no.	gene	CDH1-null / parental viability ratio
1	FAM199X (family with sequence similarity 199, X-linked)	1.09
2	MCEE (methylmalonyl-CoA epimerase)	0.96
3	CEP85 (centrosomal protein 85)	0.95
4	CDCA2 (cell division cycle associated 2)	0.76
5	TREM2 (triggering receptor expressed on myeloid cells 2)	0.73
6	LIG4 (DNA ligase 4)	0.9
7	SPACA5 (sperm acrosome associated 5)	1.06
8	CYB5B (cytochrome b5 type B)	0.97
9	PTPN13 (protein tyrosine phosphatase non-receptor type 13)	1.4
10	LRRC15 (leucine rich repeat containing 15)	0.86
11	DVL3 (dishevelled segment polarity protein 3)	1.02
12	COL16A1 (collagen type XVI alpha 1 chain)	1.05
13	HSPA9 (heat shock protein family A (Hsp70) member 9)	0.94
14	DDX47 (DEAD-box helicase 47)	0.85
15	KLHL32 (kelch like family member 32)	0.71
16	REPS1 (RALBP1 associated Eps domain containing 1)	0.9
17	CACNG2 (calcium voltage-gated channel auxiliary subunit gamma 2)	1.12
18	ESPL1 (extra spindle pole bodies like 1, separase)	1.22
19	TXNDC12 (thioredoxin domain containing 12)	0.95
20	PI4K2A (phosphatidylinositol 4-kinase type 2 alpha)	1.02
21	PCNX4 (pecanex 4)	0.77
22	HSDL2 (hydroxysteroid dehydrogenase like 2)	1.31
23	RNFT1 (ring finger protein, transmembrane 1)	0.76
24	RAI2 (retinoic acid induced 2)	0.79
25	DNAJC17 (DnaJ heat shock protein family (Hsp40) member C17)	1.05
26	ATG4D (autophagy related 4D cysteine peptidase)	1.23
27	MERTK (MER proto-oncogene, tyrosine kinase)	0.87
28	DLGAP1-AS1 (DLGAP1 antisense RNA 1)	0.9
29	SLC2A10	1.32
30	NUB1 (negative regulator of ubiquitin like proteins 1)	1.34
31	CC2D1B (coiled-coil and C2 domain containing 1B)	0.89
32	RPS3 (ribosomal protein S3)	1.28
33	SLC26A3	1.01
34	LY9 (lymphocyte antigen 9)	0.91
35	KDM8 (lysine demethylase 8 (putative))	1.44
36	CNNM1	1
37	TPRKB (TP53RK binding protein)	0.95
38	PIAS1 (protein inhibitor of activated STAT 1)	0.8
39	WWP2 (WW domain containing E3 ubiquitin protein ligase 2)	1.23
40	NCOA3 (nuclear receptor coactivator 3)	0.9
41	PLPP2 (phospholipid phosphatase 2)	1.94
42	SHFL (shiftless antiviral inhibitor of ribosomal frameshifting)	1.17
43	DYNC1I2 (dynein cytoplasmic 1 intermediate chain 2)	0.9
44	SF3B1 (splicing factor 3b subunit 1)	1.08
45	RGS13 (regulator of G protein signaling 13)	0.89
46	GADL1 (GAD like acidic amino acid decarboxylase 1)	1.03
47	DNAJC1 (DnaJ heat shock protein family (Hsp40) member C1)	1.21
48	EEIG2 (EEIG family member 2)	1.06
49	BCL7C (BAF chromatin remodeling complex subunit BCL7C)	0.99
50	PHLDA3 (pleckstrin homology like domain family A member 3)	0.92
51	PRICKLE3 (prickle planar cell polarity protein 3)	0.98
52	BTK (Bruton tyrosine kinase)	1.2
53	APLN (apelin)	0.99
54	ATP8B4 (ATPase phospholipid transporting 8B4 (putative))	0.96
55	PTPRO (protein tyrosine phosphatase receptor type O)	1.28
56	TLE3 (TLE family member 3, transcriptional corepressor)	0.78
57	KCND2 (potassium voltage-gated channel subfamily D member 2)	1.07
58	OR4B1 (olfactory receptor family 4 subfamily B member 1)	1.1
59	ACKR5 (atypical chemokine receptor 5)	1.5
60	ARHGEF3 (Rho guanine nucleotide exchange factor 3)	1.08
61	SURF2 (surfeit 2)	0.97
62	ZNF182 (zinc finger protein 182)	1.06
63	GGA3	0.81
64	ATP5MG (ATP synthase membrane subunit g)	1.33
65	CDR2L (cerebellar degeneration related protein 2 like)	0.9
66	GFPT2 (glutamine--fructose-6-phosphate transaminase 2)	0.94
67	KLK14 (kallikrein related peptidase 14)	1.38
68	PARD3B (par-3 family cell polarity regulator beta)	0.81

Not a retest: entries from further up.
no.	gene	CDH1-null / parental viability ratio
2	MCEE (methylmalonyl-CoA epimerase)	0.96
3	CEP85 (centrosomal protein 85)	0.95
4	CDCA2 (cell division cycle associated 2)	0.76
5	TREM2 (triggering receptor expressed on myeloid cells 2)	0.73
